# Screen size: about 400,000 compounds; about 13,000 (3.2%) were called active. The inconclusive results got no clear call from the source; some entries with a clear call stand among them for comparison. Calls come from the whole dose curve; as a rule, active = well fitted cell-killing curve with a large enough effect; inconclusive = small, poorly fitted or top-dose-only effect, or effect the other way; inactive = flat fitted curve, though single readings scatter. Potencies beside an inconclusive call are fits to weak or partial responses and may not hold up.
# Test: qHTS assay for MDR1-selective chemotherapeutics: Primary screen using the drug-selected MDR subline cells KB-V1; note: nearly all actives have a fitted effect of over 60% in size
# Conditions: KB-V1 MDR cells viability, CellTiter-Glo, 72 h; activity change, negative = cytotoxicity: at 46.1 µM (top of the series)
# Procedure, shortened: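 KB-V1 MDR subline cells in DMEM (phenol-red free, 10% FBS) exposed to compounds in qHTS concentration series for 72 h at 37 degrees C. Viability read by CellTiter-Glo luminescence; concentration-effect curves fitted after normalization and correction.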
# % is set by controls: 0 for no effect and ±100 for the full control effect; potency is the fitted concentration of half-maximal effect.
SMILES,Potency,"activity change, negative = cytotoxicity"
COc1ccc(C(=O)Cc2ccc(OC)c(OC)c2)cc1,active: 23.1 µM,
Clc1nccc(N2CCN(c3ccccc3Cl)CC2)n1,"inconclusive: 29.1 µM [cytotoxic, single point]",
COC(=O)/C(=C\Nc1ccc(OC)cc1)NC(=O)c1ccc(Cl)cc1Cl,inactive,
CCC(=O)N1Cc2cc(C(=O)Nc3nccs3)nc(-c3cccc(-c4ccccc4OC)c3)c2[C@@H]1CCO,active: 23.1 µM,
Cn1cc(C(=O)c2ccc(Cl)cc2Cl)cc1C(=O)N/N=C(\N)COc1ccc(Cl)cc1,"inconclusive: 29.1 µM [cytotoxic, single point]",
CCc1ccc(Nc2ncc3c(n2)CC(c2ccc(OC)cc2)CC3=O)cc1 (configuration not stated),inactive,
COC(C[C@@H]1O[C@@H]1C(=O)COCc1ccccc1)OC,inactive,
CC1=C(C(=O)N(C(C)C)C(C)C)CC(CC(=O)NCc2cccc3ccccc23)C(=O)N1Cc1ccc(F)cc1 (configuration not stated),"inconclusive: 23.1 µM [cytotoxic, single point]",
C[C@H](NC(=O)c1nc[nH]c1C(=O)NCc1ccc(CNC(=O)OC(C)(C)C)cc1)C(=O)OC(C)(C)C,inactive,
CCc1cccc(C)c1NS(=O)(=O)c1ccc(-c2cc(C)no2)s1,"inconclusive: 0.92 µM [cytotoxic, full curve, poor fit]",
COc1ccc(-c2cccc(NS(=O)(=O)c3cc(C)ccc3OC)c2)nn1,"inconclusive: 20.6 µM [cytotoxic, single point]",
Cc1cc(C)c(C)c(S(=O)(=O)N2CCC(C(=O)NCCCN3CCCC3=O)CC2)c1C,"inconclusive: 29.1 µM [cytotoxic, single point]",
COc1ccc(C(=O)NCC(c2ccco2)S(=O)(=O)c2cccs2)cc1 (configuration not stated),inactive,
C[N+]1=C(/C=C/Nc2ccccc2Cl)C(C)(C)c2ccccc21,"inconclusive: 29.1 µM [cytotoxic, single point]",
CC[C@H](C)Cc1cn([C@@H](CCCCN)C(=O)NCCCCCCCCCCC(=O)N2CCNCC2)nn1,"inconclusive: 29.1 µM [rising, single point]",
CCN(CC(=O)NCc1ccc(Cl)cc1)S(=O)(=O)c1ccc(F)cc1,"inconclusive: 18.4 µM [cytotoxic, partial curve, poor fit]",
Cc1ccccc1NC(=O)c1c(NC(=O)c2cccs2)sc2c1CCC(C)C2 (configuration not stated),inactive,
CC1=NN(C(=O)COc2cc(C)ccc2C(C)C)C(O)(c2ccccc2)C1 (configuration not stated),"inconclusive: 18.4 µM [cytotoxic, partial curve]",
O=C(O)Cn1c(SCCOc2ccc(Cl)cc2)nc2ccccc21,inactive,
Cc1cc(C(=O)Nc2c(C)nn(Cc3c(Cl)cccc3Cl)c2C)no1,active: 9.2 µM,
CCOc1cc(CNc2ccc(Br)cc2)cc(Br)c1OCC(=O)NC(C)(C)C,"inconclusive: 29.1 µM [cytotoxic, single point]",
Cn1c(=O)n(C)c2cc(N3CCCCC3)c(NC(=O)c3c(F)cccc3F)cc21,inactive,
O=[n+]1cc(-c2ccccc2)n([O-])c2c1CCC2,"inconclusive: 7.31 µM [rising, partial curve, poor fit]",
OCC[C@H]1C[C@H](O)[C@@H](O)[C@@]2(Cc3ccccc3CCO2)O1,"inconclusive: 16.4 µM [rising, partial curve, poor fit]",

SMILES,Potency,"activity change, negative = cytotoxicity"
COc1ccc(-c2ccc(SCC(=O)c3cccs3)nn2)cc1OC,active: 2.31 µM,
CCN(CCNC(=O)CN(C)S(=O)(=O)c1cccc2nsnc12)c1ccccc1,inactive,
CCOC(=O)c1c(C)[nH]c(C)c1C(=O)COC(=O)Cc1n[nH]c(=O)c2ccccc12,"inconclusive: 29.1 µM [rising, single point]",
CCn1c(SCC(=O)NC2CCCC2)nnc1-c1cccnc1,"inconclusive: 23.1 µM [rising, partial curve, poor fit]",
Cc1onc(-c2ccccc2)c1C(=O)N1CCN(c2ccccc2F)CC1,inactive,
C/C(=N\NC(=O)C1(C)CC1(Br)Br)c1ccc(NC(=O)c2ccc(C)o2)cc1 (configuration not stated),active: 20.6 µM,
O=[N+]([O-])c1ccc2c(c1)-c1ccccc1C2O (configuration not stated),inactive,
CCCC(C)Sc1nc2c([nH]1)c(=S)n(C)c(=O)n2C (configuration not stated),active: 8.2 µM,
CSc1ccc(CN(C)Cc2nc3cc(C(F)(F)F)ccc3c(=O)[nH]2)cc1,active: 23.1 µM,
c1ccc(C(c2ccccn2)c2ccccn2)cc1,"inconclusive: 18.4 µM [cytotoxic, single point]",
COc1cccc(COC(=O)Nc2ccccc2F)c1,"inconclusive: 20.6 µM [cytotoxic, single point]",
O=C(N/N=C(\c1ccccc1)c1cccnc1)c1ccc(O)cc1,"inconclusive: 4.61 µM [rising, full curve]",
CCCc1nc(SCC(=O)N2CCOCC2)c2c(C)c(C)sc2n1,active: 9.2 µM,
C#Cc1cccc(Nc2nc(NCCOC)nc3ccsc23)c1,inactive,
CCn1c(SCCC(=O)Nc2ccccc2)nnc1-c1ccc(OC)cc1,"inconclusive: 23.1 µM [cytotoxic, partial curve, poor fit]",
O=C(Nc1ccc2c(c1)OCCO2)C1CCN(c2cnccn2)CC1,,inconclusive: -75.2%
COc1cc(Cl)ccc1NC(=S)N(CCCN1CCOCC1)Cc1cn(C)c2ccccc12,inactive,
Cc1cccc(NS(=O)(=O)c2ccc(C)c(NS(=O)(=O)c3cccs3)c2)c1,"inconclusive: 0.0046 µM [cytotoxic, full curve, poor fit]",
COc1ccc(CCNC(=O)[C@H](CC(C)C)NC(=O)N2CCn3c2nc2ccccc23)cc1OC,inactive,
N=c1c(S(=O)(=O)c2ccccc2)cc2c(=O)n3ccccc3nc2n1C1CCCCC1,"inconclusive: 14.6 µM [cytotoxic, partial curve]",
Cn1c(=O)c(S(=O)C2CCCCC2)c(O)c2ccccc21 (configuration not stated),inactive,
Cc1cc2nc(/N=C(\N)NC(=O)N3c4ccccc4Sc4ccccc43)nc(C)c2cc1C,"inconclusive: 29.1 µM [cytotoxic, single point]",
O=C(NNC(=O)c1ccc(Oc2cc(Cl)cc(Cl)c2)o1)c1ccccc1,"inconclusive: 25.9 µM [cytotoxic, single point]",

# 4 compounds already listed, ordered by SMILES length, low to high:
SMILES,Potency,"activity change, negative = cytotoxicity"
O=[N+]([O-])c1ccc2c(c1)-c1ccccc1C2O (configuration not stated),inactive,
COc1cc(Cl)ccc1NC(=S)N(CCCN1CCOCC1)Cc1cn(C)c2ccccc12,inactive,
C/C(=N\NC(=O)C1(C)CC1(Br)Br)c1ccc(NC(=O)c2ccc(C)o2)cc1 (configuration not stated),active: 20.6 µM,
COc1ccc(CCNC(=O)[C@H](CC(C)C)NC(=O)N2CCn3c2nc2ccccc23)cc1OC,inactive,

# From PubChem BioAssay AID1347076 (National Center for Advancing Translational Sciences (NCATS), 2019)
